Measured values published in publication PMC5039030.
These are yes or no findings as the source states them, for the method shown. In cells and extracts the contact can be indirect. Some binding calls cover weakened binding; strength is not graded here. One block for each binder: values may come before it.

Chains of the proteins cited; added tags and fusions are not shown.
UniProt Q86TI2: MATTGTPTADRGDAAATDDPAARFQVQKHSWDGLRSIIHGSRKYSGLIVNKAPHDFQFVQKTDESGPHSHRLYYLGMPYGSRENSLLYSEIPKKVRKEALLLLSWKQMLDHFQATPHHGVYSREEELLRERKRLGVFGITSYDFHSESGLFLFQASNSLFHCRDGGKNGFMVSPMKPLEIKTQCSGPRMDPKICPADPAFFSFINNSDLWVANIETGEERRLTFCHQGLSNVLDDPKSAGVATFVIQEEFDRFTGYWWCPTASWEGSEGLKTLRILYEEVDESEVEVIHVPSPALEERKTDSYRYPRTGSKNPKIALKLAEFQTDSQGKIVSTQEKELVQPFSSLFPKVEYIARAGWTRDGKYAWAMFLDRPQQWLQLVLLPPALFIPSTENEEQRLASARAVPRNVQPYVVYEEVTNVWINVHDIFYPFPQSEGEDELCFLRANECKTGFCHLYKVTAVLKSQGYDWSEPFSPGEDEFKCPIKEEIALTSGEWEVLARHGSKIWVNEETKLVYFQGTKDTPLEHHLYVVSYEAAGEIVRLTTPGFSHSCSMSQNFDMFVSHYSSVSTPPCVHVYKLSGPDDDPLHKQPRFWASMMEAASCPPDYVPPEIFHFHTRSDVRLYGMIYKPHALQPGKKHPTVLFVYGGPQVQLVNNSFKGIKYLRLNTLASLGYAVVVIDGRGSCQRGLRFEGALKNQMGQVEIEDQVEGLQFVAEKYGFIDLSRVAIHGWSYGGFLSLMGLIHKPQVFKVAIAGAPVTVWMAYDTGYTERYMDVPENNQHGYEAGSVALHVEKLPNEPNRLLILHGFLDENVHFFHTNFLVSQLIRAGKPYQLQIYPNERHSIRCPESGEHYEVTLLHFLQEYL

Assays:
[1] = biological target: endogenous DPP9 (human (endogenous in HeLa and DG-75)), Q86TI2; assay: co-IP; endogenous proteins from HeLa cells treated with different cross-linkers; binding observed with the sulfhydryl cross-linker DPDPB (spacer 19.9 Å); DPP9 immunoprecipitated; details: remark: other sources report otherwise
[2] = biological target: endogenous DPP9 (human (endogenous in HeLa and DG-75)) (UniProt Q86TI2); assay: proximity ligation; in situ PLA of DPP9-Syk in HeLa cells treated with 10 µM synthetic SLRFLYEG complexed with the carrier peptide pep1; control cells with pep1 alone; only the binder purified

- binding [1]: no binding
B1: endogenous DPP8, Q6V1X1 1-898 (enzyme)
chain: MWKRSEQMKIKSGKCNMAAAMETEQLGVEIFETADCEENIESQDRPKLEPFYVERYSWSQLKKLLADTRKYHGYMMAKAPHDFMFVKRNDPDGPHSDRIYYLAMSGENRENTLFYSEIPKTINRAAVLMLSWKPLLDLFQATLDYGMYSREEELLRERKRIGTVGIASYDYHQGSGTFLFQAGSGIYHVKDGGPQGFTQQPLRPNLVETSCPNIRMDPKLCPADPDWIAFIHSNDIWISNIVTREERRLTYVHNELANMEEDARSAGVATFVLQEEFDRYSGYWWCPKAETTPSGGKILRILYEENDESEVEIIHVTSPMLETRRADSFRYPKTGTANPKVTFKMSEIMIDAEGRIIDVIDKELIQPFEILFEGVEYIARAGWTPEGKYAWSILLDRSQTRLQIVLISPELFIPVEDDVMERQRLIESVPDSVTPLIIYEETTDIWINIHDIFHVFPQSHEEEIEFIFASECKTGFRHLYKITSILKESKYKRSSGGLPAPSDFKCPIKEEIAITSGEWEVLGRHGSNIQVDEVRRLVYFEGTKDSPLEHHLYVVSYVNPGEVTRLTDRGYSHSCCISQHCDFFISKYSNQKNPHCVSLYKLSSPEDDPTCKTKEFWATILDSAGPLPDYTPPEIFSFESTTGFTLYGMLYKPHDLQPGKKYPTVLFIYGGPQVQLVNNRFKGVKYFRLNTLASLGYVVVVIDNRGSCHRGLKFEGAFKYKMGQIEIDDQVEGLQYLASRYDFIDLDRVGIHGWSYGGYLSLMALMQRSDIFRVAIAGAPVTLWIFYDTGYTERYMGHPDQNEQGYYLGSVAMQAEKFPSEPNRLLLLHGFLDENVHFAHTSILLSFLVRAGKPYDLQIYPQERHSIRVPESGEHYELHLLHYLQENLGSRIAALKVI

- binding [2]: binds
Binder: SLRFLYEG [allosteric DPP8/9 peptide inhibitor SLRFLYEG]
